Assay results taken from US4367216A, “Triiodinated 5-aminoisophthalic acid derivatives” (Schering Aktiengesellschaft, priority 1979, dated 1983).
No dose or concentration is given here for some results.

Test system: lymphatic system of dogs
Experiment: Lymphography comparison of A, B and C after direct and indirect administration
Format: in vivo
Conditions: lymphography with A or B
Procedure: The following table compares the advantageous effects of the compounds of this invention in lymphography, using as test substances thiodipropionic acid bis[3,5-bis-(2,3-dihydroxypropyl-N-methylcarbamoyl)-2,4,6-triiodoanilide] (A) and 4,4,6,6-tetramethyl-4,6-disila-5-oxanonanedioic acid bis[3,5-bis(2,3-dihydroxypropyl-N-methylcarbamoyl)-2,4,6-triiodoanilide] (B) in comparison with the fatty acid ethyl ester of iodinated oleum papaveris (C). The test results were determined on dogs using testing methods conventional in lymphography after direct and indirect administration.

Structure (SMILES)	Treatment period
CN(CC(O)CO)C(=O)c1c(I)c(NC(=O)CC[Si](C)(C)O[Si](C)(C)CCC(=O)Nc2c(I)c(C(=O)N(C)CC(O)CO)c(I)c(C(=O)N(C)CC(O)CO)c2I)c(I)c(C(=O)N(C)CC(O)CO)c1I (centres unmarked) [B, 4,4,6,6-tetramethyl-4,6-disila-5-oxanonanedioic acid bis[3,5-bis(2,3-dihydroxypropyl-N-methylcarbamoyl)-2,4,6-triiodoanilide]]	≤ 4 h
CN(CC(O)CO)C(=O)c1c(I)c(NC(=O)CCSCCC(=O)Nc2c(I)c(C(=O)N(C)CC(O)CO)c(I)c(C(=O)N(C)CC(O)CO)c2I)c(I)c(C(=O)N(C)CC(O)CO)c1I (centres unmarked) [A, thiodipropionic acid bis[3,5-bis-(2,3-dihydroxypropyl-N-methylcarbamoyl)-2,4,6-triiodoanilide]]	≤ 4 h
